The values below come from paper PMC7862700.

Sequences of proteins named here, by UniProt entry; tags and fusion partners are left off. A change or cut given only in a name is not applied to a line headed by its entry.
UniProt Q00613: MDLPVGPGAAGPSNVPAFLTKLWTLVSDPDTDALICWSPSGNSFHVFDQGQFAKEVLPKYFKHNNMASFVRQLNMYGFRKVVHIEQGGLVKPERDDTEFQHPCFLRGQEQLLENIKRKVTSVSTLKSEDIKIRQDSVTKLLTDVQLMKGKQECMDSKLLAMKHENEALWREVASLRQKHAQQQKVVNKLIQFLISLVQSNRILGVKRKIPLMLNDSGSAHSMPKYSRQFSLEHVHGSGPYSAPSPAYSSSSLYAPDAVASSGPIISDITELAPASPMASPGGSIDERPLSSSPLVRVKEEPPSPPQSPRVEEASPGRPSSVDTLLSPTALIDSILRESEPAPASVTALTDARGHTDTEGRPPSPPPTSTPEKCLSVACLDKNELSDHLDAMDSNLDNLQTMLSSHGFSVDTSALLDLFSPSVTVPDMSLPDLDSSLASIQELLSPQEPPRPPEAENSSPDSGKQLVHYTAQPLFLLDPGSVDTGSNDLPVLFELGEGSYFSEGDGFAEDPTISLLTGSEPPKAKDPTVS

The target in one assay is HSF1 (UniProt Q00613). Description: DAPPL (digital affinity profiling via proximity ligation, sequencing). As to conditions: 10 mM Tris-HCl pH 7.5, 50 mM NaCl, 1 mM DTT, 4% glycerol, room temperature, 30 min; GST-TFs on glutathione beads, 16-mer random dsDNA library, 0.1% …; high values mean tight binding; double strand, one strand shown; scale: fold enrichment (6-mer frequency, TF over GST control).

Another assay has as its target T1, ELF2 (UniProt Q15723).
T1 sequence: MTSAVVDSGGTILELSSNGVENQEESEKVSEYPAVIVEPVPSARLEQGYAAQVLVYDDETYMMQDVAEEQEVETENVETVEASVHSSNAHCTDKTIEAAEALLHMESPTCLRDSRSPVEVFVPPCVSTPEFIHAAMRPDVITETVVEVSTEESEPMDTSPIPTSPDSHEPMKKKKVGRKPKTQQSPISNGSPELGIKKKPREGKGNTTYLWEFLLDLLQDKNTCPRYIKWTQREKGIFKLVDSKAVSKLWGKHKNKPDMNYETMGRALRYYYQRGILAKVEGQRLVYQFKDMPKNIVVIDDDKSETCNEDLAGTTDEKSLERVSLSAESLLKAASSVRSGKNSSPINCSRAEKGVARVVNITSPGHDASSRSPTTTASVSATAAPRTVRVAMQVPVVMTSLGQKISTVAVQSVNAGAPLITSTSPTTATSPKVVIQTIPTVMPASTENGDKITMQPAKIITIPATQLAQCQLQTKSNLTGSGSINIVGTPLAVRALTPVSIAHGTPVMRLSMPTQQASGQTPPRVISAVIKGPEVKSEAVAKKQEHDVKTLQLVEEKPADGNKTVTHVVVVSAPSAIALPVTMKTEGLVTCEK
The description is as above. Particulars: 10 mM Tris-HCl pH 7.5, 50 mM NaCl, 1 mM DTT, 4% glycerol, room temperature, 30 min; GST-TFs on glutathione beads, 16-mer random dsDNA library, 0.1% …; high values mean tight binding; double strand, one strand shown; scale: fold enrichment (6-mer frequency, TF over GST control).

The entries are a selection whose mix differs from that of the whole data set. For part of these data: At the low end of the ranking the order means little. The list shows a part of the results. For part of these data: Construct or isoform of the protein are uncertain.

In the case of ACAATG, the binding signal with HSF1 is 0.877; in the assay with ELF2, 1.06.
The matching figures for GTAGCG: 0.743 and 0.898.
As for GATATG, the figures for the binding signal in the assay with HSF1 and with ELF2 were 0.853 and 1.12, respectively.
The matching figures for GTGCCC: 0.697 and 0.941.
The matching figures for GTGGCC: 0.703 and 0.972.
On the same counts, the results for ATGTAG are 0.909 and 1.02.
For AGTTTT, the binding signal in the assay with HSF1 was determined as 0.984; in the assay with ELF2, 1.02.
As for AAGATG, the binding signal with HSF1 came to 1.19; with ELF2 it was 1.09.
The matching figures for CTGACG: 0.928 and 1.07.
The matching figures for GTACTG: 0.903 and 1.03.
On the same counts, the results for ACCAAG are 0.863 and 0.869.
On to TTCGGT, for which the binding signal with HSF1 worked out at 1.22; with ELF2, 1.08.
The matching figures for CCATAG: 0.949 and 0.874.
The matching figures for TAAAGG: 1.15 and 1.03.
On the same counts, the results for GCTAGT are 1.12 and 0.983.
Turning to CGGCAC, the values for the binding signal with HSF1 and in the assay with ELF2 were 0.686 and 0.925, respectively.
With TGGCGC, the binding signal in the assay with HSF1 is 0.685; with ELF2 it was 0.89.
The matching figures for GGTCCA: 0.722 and 0.883.
For TGCGCC, the binding signal worked out at 0.969 with HSF1 and 1.08 in the assay with ELF2.
Regarding AGCAAT, the binding signal was determined as 1.1 with HSF1 and 1.11 with ELF2.
The matching figures for TTTTCC: 1.73 and 2.08.
On the same counts, the results for ATTGAG are 0.938 and 0.952.
The matching figures for GACACT: 0.827 and 0.989.
With GATACC, the figures for the binding signal with HSF1 and with ELF2 were 0.732 and 0.932, respectively.
On the same counts, the results for GAATTG are 1.06 and 1.14.
The matching figures for GCGCCC: 0.867 and 1.08.
On the same counts, the results for ATGACC are 1.42 and 1.52.
Regarding CGCCAC, the binding signal with HSF1 was determined as 0.748; with ELF2 it was 1.
The matching figures for ATGCTG: 1.02 and 1.13.
As for TTTAGA, the binding signal worked out at 1.37 in the assay with HSF1 and 0.96 with ELF2.
On the same counts, the results for GATAAC are 0.968 and 0.911.
With CCTGAA, the binding signal with HSF1 amounted to 1.54; in the assay with ELF2, 1.35.
On the same counts, the results for GTTGTC are 0.623 and 0.835.
On the same counts, the results for ATAGCC are 0.901 and 1.03.
On the same counts, the results for CAAACA are 0.906 and 1.07.
On to GCCCAC, for which the binding signal was found to be 0.813 in the assay with HSF1 and 1.07 in the assay with ELF2.
With GCGTTG, the binding signal with HSF1 was 0.732; in the assay with ELF2, 0.866.
The matching figures for CAAACG: 0.857 and 0.94.
On the same counts, the results for GTGCCG are 0.658 and 0.887.
On to ACACAT, for which the binding signal with HSF1 is 0.958; with ELF2, 1.24.
The matching figures for GAGCTC: 0.93 and 0.901.
With CCTTTG, the binding signal in the assay with HSF1 was 1.21; with ELF2 it was 1.25.
The matching figures for ATTGTG: 0.876 and 0.89.
On the same counts, the results for CAATTA are 1.12 and 1.12.
On the same counts, the results for ACTCAC are 1.07 and 1.21.
Turning to GCCGCC, the binding signal with HSF1 worked out at 0.766; in the assay with ELF2, 0.975.
On the same counts, the results for CATGAT are 1.1 and 1.04.
The matching figures for GCTGCC: 0.869 and 1.04.
On the same counts, the results for TCCCGG are 1.37 and 2.76.
As to CCCCAC, the binding signal with HSF1 came out at 0.921; with ELF2, 1.14.
On to CATACG, for which the binding signal in the assay with HSF1 was 0.884; in the assay with ELF2, 0.988.
On the same counts, the results for TTCGCA are 1.31 and 1.23.
Turning to CGGTTA, the binding signal in the assay with HSF1 is 0.804; with ELF2 it was 0.998.
Regarding ACTGTA, the binding signal in the assay with HSF1 was found to be 0.905; with ELF2, 0.994.
The matching figures for AAGCCG: 0.991 and 0.911.
As to GAATGG, the figures for the binding signal with HSF1 and with ELF2 were 1.07 and 0.901, respectively.
Consider GTATGG, for which the binding signal with HSF1 stood at 0.839; with ELF2, 1.
On the same counts, the results for TAACTG are 1.25 and 1.19.
The matching figures for TGGCCC: 0.879 and 0.996.
Take ACACAA: the binding signal with HSF1 was found to be 0.999; in the assay with ELF2 it was 1.14.
The matching figures for ACCTCT: 1.18 and 1.25.
In the case of CACCCA, the binding signal with HSF1 is 0.806; with ELF2 it was 0.97.
The matching figures for CTTTAG: 1.37 and 1.13.
For AGGTCC, the binding signal was 0.762 in the assay with HSF1 and 0.917 with ELF2.
The matching figures for GTGACT: 0.684 and 0.952.
The matching figures for ATAGGG: 0.906 and 0.985.
The matching figures for GTTTTT: 1.21 and 1.36.
As to GCAACA, the results for the binding signal with HSF1 and with ELF2 were 0.76 and 0.973, respectively.
On the same counts, the results for AGCGCT are 0.93 and 1.06.
The matching figures for TCAGCA: 0.953 and 0.97.
The matching figures for CAATGG: 0.806 and 0.904.
Take TGCAGA: the binding signal in the assay with HSF1 was found to be 0.947; with ELF2, 0.92.
Turning to CCCAAG, the binding signal turned out to be 0.948 in the assay with HSF1 and 0.986 with ELF2.
The matching figures for ACCCCA: 0.9 and 1.06.
On the same counts, the results for ACTATG are 1.09 and 1.14.
On the same counts, the results for CGGAAA are 0.951 and 2.97.
Turning to ATACTC, the values for the binding signal with HSF1 and in the assay with ELF2 were 1.41 and 1.23, respectively.
On the same counts, the results for TTTGGA are 1.48 and 1.11.
On the same counts, the results for TGTACA are 1.01 and 1.17.
The matching figures for GCTACG: 0.926 and 1.1.
Turning to CATACA, the binding signal was determined as 0.817 with HSF1 and 0.999 in the assay with ELF2.
For the sequence GATTCA, the binding signal in the assay with HSF1 worked out at 1.13; with ELF2, 1.12.
For GTTATC, the binding signal in the assay with HSF1 amounted to 1.03; with ELF2, 1.1.
On the same counts, the results for CGGTCT are 0.862 and 1.13.
On the same counts, the results for TATGTC are 0.893 and 1.08.
As for GTACGA, the binding signal amounted to 0.996 with HSF1 and 1.06 with ELF2.
Regarding TCACTC, the binding signal with HSF1 turned out to be 1.11; with ELF2, 1.15.
As for CGGATC, the binding signal with HSF1 is 0.891; with ELF2, 1.01.
The matching figures for TACTAT: 1.37 and 1.27.
On the same counts, the results for GCTGCT are 1.13 and 1.22.
The matching figures for ACGTCC: 1.07 and 1.8.
As to TCCGCG, the binding signal in the assay with HSF1 was 0.965; with ELF2 it was 1.51.
The matching figures for ACTAAT: 1.81 and 1.28.
Consider TTCCGA, for which the binding signal turned out to be 1.35 in the assay with HSF1 and 1.78 in the assay with ELF2.
On the same counts, the results for TGGCGA are 1.03 and 0.985.
The matching figures for ACGTTG: 0.896 and 1.
For the sequence AGCTGA, the binding signal with HSF1 came to 0.971; in the assay with ELF2 it was 1.03.
The matching figures for AGGAAG: 0.64 and 2.03.
On to TGTTTC, for which the binding signal in the assay with HSF1 is 1.43; with ELF2, 2.01.
On the same counts, the results for ATCCGT are 0.891 and 1.04.
The matching figures for ATATAG: 1.19 and 1.17.
As for ATAACG, the figures for the binding signal in the assay with HSF1 and with ELF2 were 0.938 and 1, respectively.
As for TGATCA, the binding signal in the assay with HSF1 stood at 1.08; in the assay with ELF2, 0.939.
The matching figures for TACGAG: 1.26 and 0.898.
The matching figures for CTCCAT: 1.21 and 1.26.
On the same counts, the results for GCGTTT are 0.932 and 1.15.
GCATAC: the binding signal with HSF1 came out at 0.736; with ELF2, 0.929.
The matching figures for GTGGTC: 0.559 and 0.812.
On the same counts, the results for CGCACC are 0.775 and 0.946.
On the same counts, the results for CATTGT are 0.933 and 1.03.
Turning to TTTATC, the binding signal in the assay with HSF1 was found to be 1.65; in the assay with ELF2, 1.26.
On the same counts, the results for AACCTG are 1.03 and 1.18.
On the same counts, the results for GCTGGC are 0.943 and 0.959.
On the same counts, the results for GTCGAC are 0.746 and 0.938.
As to TAGCTT, the binding signal with HSF1 stood at 1.4; with ELF2, 1.29.
In the case of CTTAAC, the binding signal is 1.72 with HSF1 and 1.23 with ELF2.
The matching figures for CGCGGC: 0.91 and 0.948.
The matching figures for CCGCAT: 1.13 and 1.88.
On the same counts, the results for CCAAAG are 0.962 and 0.937.
As for GTATAA, the results for the binding signal with HSF1 and in the assay with ELF2 were 1.16 and 1.09, respectively.
